No constants are given. Whether binding was seen depends on the method and setting. Binding seen in cells or lysates may run through a third protein. Some binding calls cover weakened binding; strength is not graded here. Sequences can lack the tags named with a protein.
Experiments:
[1] = target: G protein-coupled receptor GPR180, endogenous, in crude tissue homogenates of two day old Cthrc1 null mouse pups (mouse) (UniProt Q8BPS4); assay: co-immunoprecipitation from Cthrc1 null pup tissue homogenate, qTOF / linear ion trap MS
[2] = target: G protein-coupled receptor GPR180, endogenous, in crude tissue homogenates of two day old Cthrc1 null mouse pups (mouse) (UniProt Q8BPS4); assay: co-immunoprecipitation from Cthrc1 null pup tissue homogenate, LC-MS
[3] = target: G protein-coupled receptor GPR180, endogenous, in crude tissue homogenates of two day old Cthrc1 null mouse pups (mouse) (UniProt Q8BPS4); assay: co-immunoprecipitation, LC-MS

Protein sequences, listed by entry. Tags and fused reporters are not part of them. Lines headed by an entry give the natural chain unless they say otherwise; changes in a name come on top.
UniProt Q8BPS4: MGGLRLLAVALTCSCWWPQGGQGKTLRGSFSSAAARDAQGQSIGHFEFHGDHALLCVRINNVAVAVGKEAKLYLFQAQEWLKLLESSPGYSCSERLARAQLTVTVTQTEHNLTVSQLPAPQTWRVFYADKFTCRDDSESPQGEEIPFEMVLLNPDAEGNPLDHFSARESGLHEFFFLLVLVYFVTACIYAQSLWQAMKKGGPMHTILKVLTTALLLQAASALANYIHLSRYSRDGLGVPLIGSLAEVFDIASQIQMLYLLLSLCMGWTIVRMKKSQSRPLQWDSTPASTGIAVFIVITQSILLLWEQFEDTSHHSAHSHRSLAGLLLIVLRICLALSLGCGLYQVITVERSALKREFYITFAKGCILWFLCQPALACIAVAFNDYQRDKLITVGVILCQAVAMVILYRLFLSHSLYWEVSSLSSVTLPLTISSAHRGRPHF

Measured: binding

B1: purified 7×His-hCthrc1 (human Cthrc1 with a 7×His tag fused to the N terminus, expressed in CHO-K1 cells) (ligand)
chain: HHHHHHHSEIPKGKQKAQLRQREVVDLYNGMCLQGPAGVPGRDGSPGANVIPGTPGIPGRDGFKGEKGECLRESFEESWTPNYKQCSWSSLNYGIDLGKIAECTFTKMRSNSALRVLFSGSLRLKCRNACCQRWYFTFNGAECSGPLPIEAIIYLDQGSPEMNSTINIHRTSSVEGLCEGIGAGLVDVAIWVGTCSDYPKGDASTGWNSVSRIIIEELPK
binds: [1] | [2] | [3]

Source: patent US20160000866A1
